# Test: general procedure: Fmoc solid-phase peptide synthesis; Fmoc-Asp(NovaSynTGA)-OAll resin; HBTU/DIPEA
Substance,conjugation yield (conjugation step) [%],step yield (late stage modification step) [%]
CTH36-c(RGDfK),65,
c(RGDfK)-TCO,,50

# From paper PMC8699488 (Cancers, 2021)
